For the test, the target named is GST-Azu (glutathione S-transferase-tagged azurin) (Pseudomonas aeruginosa PAO1) (UniProt P00282). Put plainly: pull-down; cell lysates of P. aeruginosa containing pMMB67H-VgrG2a-Flag or pMMB67H-VgrG2b-Flag incubated with GST or GST-Azu; complexes captured by glutathione beads; only the target purified.

The chains behind the UniProt entries cited, without tags or fusion partners. Residues count along the entry.
UniProt P00282, residues 21-148: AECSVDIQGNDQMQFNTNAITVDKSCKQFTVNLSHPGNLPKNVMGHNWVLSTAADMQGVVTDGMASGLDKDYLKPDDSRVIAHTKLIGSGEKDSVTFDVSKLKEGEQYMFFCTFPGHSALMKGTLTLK
UniProt Q9I6M7: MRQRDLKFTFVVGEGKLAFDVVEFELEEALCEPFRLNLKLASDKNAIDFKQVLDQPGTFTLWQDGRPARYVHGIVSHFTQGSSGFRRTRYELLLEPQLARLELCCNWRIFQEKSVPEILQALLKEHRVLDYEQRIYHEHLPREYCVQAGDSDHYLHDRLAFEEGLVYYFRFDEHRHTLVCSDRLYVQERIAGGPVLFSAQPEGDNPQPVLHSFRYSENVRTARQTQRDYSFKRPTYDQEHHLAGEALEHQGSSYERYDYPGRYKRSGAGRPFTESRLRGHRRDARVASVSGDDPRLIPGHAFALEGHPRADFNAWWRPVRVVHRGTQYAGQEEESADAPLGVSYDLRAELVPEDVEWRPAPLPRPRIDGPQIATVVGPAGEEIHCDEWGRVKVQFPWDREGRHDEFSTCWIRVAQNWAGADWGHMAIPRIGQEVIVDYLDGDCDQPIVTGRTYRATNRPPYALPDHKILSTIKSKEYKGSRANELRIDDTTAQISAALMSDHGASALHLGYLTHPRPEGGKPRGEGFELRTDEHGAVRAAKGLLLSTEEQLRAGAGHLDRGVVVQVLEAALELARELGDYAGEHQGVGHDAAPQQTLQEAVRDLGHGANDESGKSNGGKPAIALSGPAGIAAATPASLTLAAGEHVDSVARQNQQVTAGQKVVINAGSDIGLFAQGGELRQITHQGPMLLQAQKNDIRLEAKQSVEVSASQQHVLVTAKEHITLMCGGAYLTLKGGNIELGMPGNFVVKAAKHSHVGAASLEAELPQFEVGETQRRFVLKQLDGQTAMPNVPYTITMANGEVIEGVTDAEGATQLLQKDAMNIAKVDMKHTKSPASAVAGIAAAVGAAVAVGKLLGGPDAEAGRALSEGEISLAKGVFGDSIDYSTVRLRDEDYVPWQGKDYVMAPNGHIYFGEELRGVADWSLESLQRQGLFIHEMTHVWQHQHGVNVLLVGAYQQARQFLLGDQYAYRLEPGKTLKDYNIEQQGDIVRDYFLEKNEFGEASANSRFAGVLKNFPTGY
UniProt Q9I3K1: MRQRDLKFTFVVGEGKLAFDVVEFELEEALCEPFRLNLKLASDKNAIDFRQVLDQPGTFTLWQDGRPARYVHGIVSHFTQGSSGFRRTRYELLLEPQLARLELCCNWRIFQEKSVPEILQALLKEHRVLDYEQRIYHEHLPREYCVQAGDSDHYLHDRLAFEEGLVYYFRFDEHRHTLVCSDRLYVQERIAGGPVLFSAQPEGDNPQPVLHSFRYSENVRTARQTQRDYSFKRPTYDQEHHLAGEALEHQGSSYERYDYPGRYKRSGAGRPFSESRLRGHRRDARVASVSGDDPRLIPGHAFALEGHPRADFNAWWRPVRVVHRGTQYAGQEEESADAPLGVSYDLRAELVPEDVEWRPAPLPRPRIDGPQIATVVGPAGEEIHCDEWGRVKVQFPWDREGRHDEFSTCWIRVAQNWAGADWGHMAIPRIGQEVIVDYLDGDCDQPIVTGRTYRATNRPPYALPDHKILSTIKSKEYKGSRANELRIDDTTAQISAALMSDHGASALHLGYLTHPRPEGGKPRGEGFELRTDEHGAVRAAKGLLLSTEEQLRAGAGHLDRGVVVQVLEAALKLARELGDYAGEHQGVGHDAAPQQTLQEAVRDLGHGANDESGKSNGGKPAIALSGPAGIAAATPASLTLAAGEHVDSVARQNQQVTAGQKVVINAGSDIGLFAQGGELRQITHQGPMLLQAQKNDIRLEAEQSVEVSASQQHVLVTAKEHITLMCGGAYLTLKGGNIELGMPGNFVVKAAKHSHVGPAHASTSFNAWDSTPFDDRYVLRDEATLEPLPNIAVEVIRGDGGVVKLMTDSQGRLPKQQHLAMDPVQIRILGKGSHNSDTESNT

These are yes or no findings as the source states them, for the method shown. In cells and extracts the contact can be indirect. Some binding calls cover weakened binding; strength is not graded here.

As for “VgrG2b-Flag (from UniProt Q9I6M7 1-1019)”, the binding result was “binds”. The value for VgrG2a-Flag (from UniProt Q9I3K1 1-842) was “no binding”.

The values above are taken from article PMC6907878.
